{"source": "PubChem BioAssay AID504784 (Drosophila RNAi Screening Center, 2011)", "purpose": "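Search for regulators of lipid droplet storage in oleate-fed fly cells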 (primary screen)", "system": "Drosophila Kc167 embryonic cells", "knock-down reagent": "long dsRNA against Drosophila genes, about 250 ng dsRNA per well", "timing": "4 days", "challenge": "cells fed 400 µM oleic acid bound to BSA", "read-out": "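Cells imaged and segmented; ratio of lipid droplet area to nuclear area, log-transformed, then normalised as a B-score over the screen; higher means more stored lipid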", "reading the numbers": "droplet/nuclear area B-score: higher = more stored lipid (overstorage)", "note": "The deposit covers about 17,000 reagents; below is a random part of those that have a named target and a result. 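Each column is one replicate's B-score; the combined score over replicates was not deposited, so single values may mislead.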 Reagents against one gene are numbered here. Not all columns of the deposit are shown."}
{"Target gene":"CG42500","dsRNA no.":1,"droplet/nuclear area B-score, replicate 1":1.59}
{"Target gene":"MFS9 (Major Facilitator Superfamily Transporter 9)","dsRNA no.":1,"droplet/nuclear area B-score, replicate 1":0.114}
{"Target gene":"Or83a (Odorant receptor 83a)","dsRNA no.":1,"droplet/nuclear area B-score, replicate 1":0.738}
{"Target gene":"Alp2 (Alkaline phosphatase 2)","dsRNA no.":1,"droplet/nuclear area B-score, replicate 1":-1.16}
{"Target gene":"jv (javelin)","dsRNA no.":1,"droplet/nuclear area B-score, replicate 1":-1.75}
{"Target gene":"Dbx","dsRNA no.":1,"droplet/nuclear area B-score, replicate 1":-0.49}
{"Target gene":"Dbx","dsRNA no.":2,"droplet/nuclear area B-score, replicate 1":0.0873}
{"Target gene":"Dbx","dsRNA no.":3,"droplet/nuclear area B-score, replicate 1":1.51}
{"Target gene":"GatA (Glutamyl-tRNA amidotransferase, subunit A)","dsRNA no.":1,"droplet/nuclear area B-score, replicate 1":-0.394}
{"Target gene":"GluRIID (Glutamate receptor IID)","dsRNA no.":1,"droplet/nuclear area B-score, replicate 1":0.0429}
{"Target gene":"RhoGEF3 (retired record)","dsRNA no.":1,"droplet/nuclear area B-score, replicate 1":-0.369}
{"Target gene":"RhoGEF3 (retired record)","dsRNA no.":2,"droplet/nuclear area B-score, replicate 1":0.837}
{"Target gene":"Trm7-34 (tRNA methyltransferase 7-34)","dsRNA no.":1,"droplet/nuclear area B-score, replicate 1":-1}
{"Target gene":"CG5928","dsRNA no.":1,"droplet/nuclear area B-score, replicate 1":-0.079}
{"Target gene":"CG17646","dsRNA no.":1,"droplet/nuclear area B-score, replicate 1":-1.53}
{"Target gene":"CG30083","dsRNA no.":1,"droplet/nuclear area B-score, replicate 1":0.266}
{"Target gene":"Ugt35E2 (UDP-glycosyltransferase family 35 member E2)","dsRNA no.":1,"droplet/nuclear area B-score, replicate 1":1.25}
{"Target gene":"CG1907","dsRNA no.":1,"droplet/nuclear area B-score, replicate 1":0.108}
{"Target gene":"Gmd (GDP-mannose 4,6-dehydratase)","dsRNA no.":1,"droplet/nuclear area B-score, replicate 1":0.763}
{"Target gene":"CG7518","dsRNA no.":1,"droplet/nuclear area B-score, replicate 1":-0.0296}
{"Target gene":"CG11400","dsRNA no.":1,"droplet/nuclear area B-score, replicate 1":-1.69}
{"Target gene":"CG43775","dsRNA no.":1,"droplet/nuclear area B-score, replicate 1":0.737}
{"Target gene":"eIF1A (eukaryotic translation initiation factor 1A)","dsRNA no.":1,"droplet/nuclear area B-score, replicate 1":2.76}
{"Target gene":"Spt-I (Serine palmitoyltransferase subunit I)","dsRNA no.":1,"droplet/nuclear area B-score, replicate 1":-0.454}
{"Target gene":"CG12607","dsRNA no.":1,"droplet/nuclear area B-score, replicate 1":-2.32}
{"Target gene":"CG6951","dsRNA no.":1,"droplet/nuclear area B-score, replicate 1":2.49}
{"Target gene":"sip1 (septin interacting protein 1)","dsRNA no.":1,"droplet/nuclear area B-score, replicate 1":-1.57}
{"Target gene":"sip1 (septin interacting protein 1)","dsRNA no.":2,"droplet/nuclear area B-score, replicate 1":-1.37}

Quoted from above (4 entries):
{"Target gene":"CG43775","dsRNA no.":1,"droplet/nuclear area B-score, replicate 1":0.737}
{"Target gene":"eIF1A (eukaryotic translation initiation factor 1A)","dsRNA no.":1,"droplet/nuclear area B-score, replicate 1":2.76}
{"Target gene":"Spt-I (Serine palmitoyltransferase subunit I)","dsRNA no.":1,"droplet/nuclear area B-score, replicate 1":-0.454}
{"Target gene":"CG12607","dsRNA no.":1,"droplet/nuclear area B-score, replicate 1":-2.32}
